PubChem BioAssay AID1224826 | NIAID, 2016

- Assay: 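Regulators of Tlr4 signalling leading to Tnf-alpha expression in macrophages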 (primary screen)
- System: RAW264.7 G9 macrophages from mouse bearing reporters for p65 (GFP) and the Tnf promoter (mCherry)
- Reagent: siRNA pool against mouse genes, 100 nM
- Duration: 16 h of LPS stimulation, after 2 days of siRNA transfection
- Treatment: bacterial lipopolysaccharide (Salmonella minnesota R595), 10 ng/ml
- Measurement: 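Nuclear mCherry signal of the Tnf promoter reporter measured by imaging after background removal, scaled to each plate median and turned into robust z-scores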
- Direction: Tnf reporter robust z-score: higher = stronger Tnf promoter reporter signal after LPS
- Call rule: 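Called active when robust z-score is at most -1.3, matching the median of the Tlr4 knock-down control, or over 3; control wells and wells with under 50 cells never active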
- Meaning of the calls: active = Tnf reporter clearly lowered or raised; inactive = no clear change in Tnf reporter
In all, the deposit lists about 17,000 reagents; this is a part drawn at random. About 1,110 of them (6.6%) count as active. 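Active means lowered or raised reporter signal; replicate intensities are raw and not normalised per plate.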 Entries without a mark were called inactive. Reagents against one gene are numbered here. A reagent listed more than once was tested more than once; the source does not tell the runs apart. Further read-outs or replicates are left out here.

Target gene,reagent,Tnf reporter robust z-score,fewer than 50 cells in well
Ifna11,1,-0.8,enough cells in well
Rhoq,1,0.79,enough cells in well
Or8k27,1,0.84,enough cells in well
Scamp2,1,2.74,enough cells in well
Gpc2,1,-0.27,enough cells in well
Ppl,1,-1.61 (active),enough cells in well
Kazald1,1,-0.7,enough cells in well
Zfp36,1,-0.32,enough cells in well
Mcl1,1,-1.3 (active),enough cells in well
Or4c103,1,-0.02,enough cells in well
Igsf5,1,0.19,enough cells in well
Zp2,1,0.91,enough cells in well
Tnfsf14,1,-1.43 (active),enough cells in well
Atf1,1,1,enough cells in well
Eml3,1,-0.83,enough cells in well
Ocm,1,-1.04,enough cells in well
Usp33,1,0.65,enough cells in well
Lypd8l,1,,fewer than 50 cells per well; well left out of calls
Arv1,1,0.18,enough cells in well
Rho,1,-0.2,enough cells in well
Pcdh12,1,-0.45,enough cells in well
Phax,1,1.18,enough cells in well
Twist1,1,-1.06,enough cells in well
Or12e7,1,0.41,enough cells in well
Fnbp1,1,1.76,enough cells in well
Dcn,1,-0.84,enough cells in well
Sprr2f,1,0.51,enough cells in well
Usp2,1,0.16,enough cells in well
Rab3b,1,-0.55,enough cells in well
Chchd7,1,0.94,enough cells in well
Mrps23,1,0.98,enough cells in well
Tcfl5,1,0.14,enough cells in well
Wnt10b,1,0.19,enough cells in well
Alox8,1,0.56,enough cells in well
P2ry14,1,-0.69,enough cells in well
Rlf,1,2.42,enough cells in well
Rbfa,1,-0.61,enough cells in well
Eif3g,1,-1.93 (active),enough cells in well
Iftap,1,-0.41,enough cells in well
Rbpj,1,1.17,enough cells in well
Sit1,1,1.01,enough cells in well
Reep4,1,,fewer than 50 cells per well; well left out of calls
Or51q1c,1,1.48,enough cells in well
Or5bh3,1,0.49,enough cells in well
Sav1,1,-1.54 (active),enough cells in well
Bach2,1,2.58,enough cells in well
Psg21,1,-0.34,enough cells in well
Or8k3,1,1.09,enough cells in well
Pou4f3,1,-0.51,enough cells in well
A430057O09,1,-0.85,enough cells in well
Ppp1r12c,1,0.44,enough cells in well
Rhot2,1,,fewer than 50 cells per well; well left out of calls
Pdia5,1,-0.41,enough cells in well
Trim69,1,2.36,enough cells in well
Htr7,1,0.44,enough cells in well
Bmp2,1,-1.4 (active),enough cells in well
Spidr,1,,fewer than 50 cells per well; well left out of calls
Il1rn,1,-0.9,enough cells in well
Mbd4,1,0.13,enough cells in well
Ebna1bp2,1,-0.55,enough cells in well
Dedd,1,0.6,enough cells in well
Arfgap1,1,,fewer than 50 cells per well; well left out of calls
Ly6g6d,1,0.81,enough cells in well
Ly6g6d,2,-1.84 (active),enough cells in well
Angel2,1,-0.4,enough cells in well
Cmss1,1,-0.64,enough cells in well
Ankfy1,1,-0.18,enough cells in well
Csrnp3,1,,fewer than 50 cells per well; well left out of calls
Calcoco1,1,,fewer than 50 cells per well; well left out of calls
Umodl1,1,1.56,enough cells in well
Pebp1,1,0.27,enough cells in well
Tas2r120,1,-1.42 (active),enough cells in well
Spr,1,0.12,enough cells in well
Slc12a9,1,1.02,enough cells in well
Slc12a9,1,,fewer than 50 cells per well; well left out of calls

Taken from above:
For “Tnf reporter robust z-score”, Usp2 is entered as 0.16
Rlf, fewer than 50 cells in well = enough cells in well
Result for Ifna11 under “Tnf reporter robust z-score”: -0.8
Result for Trim69 under “Tnf reporter robust z-score”: 2.36
Zfp36, fewer than 50 cells in well → enough cells in well
For “fewer than 50 cells in well”, Or51q1c is entered as enough cells in well
